According to article PMC12853606:
Results are given in words; binding and its absence hold for the method and conditions named. In cells and extracts the contact can be indirect. Some results given as binding are weak or reduced against the parent protein; the word gives no strength.

Protein sequences, listed by entry. Tags and fused reporters are not part of them.
UniProt P25786: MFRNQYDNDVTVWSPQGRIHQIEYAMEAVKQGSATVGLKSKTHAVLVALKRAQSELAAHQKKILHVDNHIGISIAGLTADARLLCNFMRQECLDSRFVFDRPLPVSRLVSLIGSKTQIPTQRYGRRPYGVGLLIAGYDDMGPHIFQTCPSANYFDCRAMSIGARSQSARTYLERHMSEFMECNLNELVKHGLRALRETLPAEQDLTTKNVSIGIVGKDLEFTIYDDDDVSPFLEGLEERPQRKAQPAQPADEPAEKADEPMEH
UniProt O95751: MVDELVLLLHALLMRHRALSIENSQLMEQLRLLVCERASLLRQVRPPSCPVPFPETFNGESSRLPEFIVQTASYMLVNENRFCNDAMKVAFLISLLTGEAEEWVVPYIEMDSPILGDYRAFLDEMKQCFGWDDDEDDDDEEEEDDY

Columns and labels:
[1] = biological target: proteasome subunit alpha type 1 (PSMA1) (human (endogenous in A549)) (UniProt P25786); assay: proximity ligation; Duolink in situ PLA on fixed (4% paraformaldehyde), permeabilised A549 cells; primary antibodies against LDOC1 and its partner overnight at 4 °C; confocal imaging; for THAP12 also A549-shCtrl-1 and A549-shLDOC1-1 cells
[2] = biological target: T1, THAP Domain Containing 12 (THAP12) (human (endogenous in A549)) (UniProt O43422); assay: as above
T1 sequence: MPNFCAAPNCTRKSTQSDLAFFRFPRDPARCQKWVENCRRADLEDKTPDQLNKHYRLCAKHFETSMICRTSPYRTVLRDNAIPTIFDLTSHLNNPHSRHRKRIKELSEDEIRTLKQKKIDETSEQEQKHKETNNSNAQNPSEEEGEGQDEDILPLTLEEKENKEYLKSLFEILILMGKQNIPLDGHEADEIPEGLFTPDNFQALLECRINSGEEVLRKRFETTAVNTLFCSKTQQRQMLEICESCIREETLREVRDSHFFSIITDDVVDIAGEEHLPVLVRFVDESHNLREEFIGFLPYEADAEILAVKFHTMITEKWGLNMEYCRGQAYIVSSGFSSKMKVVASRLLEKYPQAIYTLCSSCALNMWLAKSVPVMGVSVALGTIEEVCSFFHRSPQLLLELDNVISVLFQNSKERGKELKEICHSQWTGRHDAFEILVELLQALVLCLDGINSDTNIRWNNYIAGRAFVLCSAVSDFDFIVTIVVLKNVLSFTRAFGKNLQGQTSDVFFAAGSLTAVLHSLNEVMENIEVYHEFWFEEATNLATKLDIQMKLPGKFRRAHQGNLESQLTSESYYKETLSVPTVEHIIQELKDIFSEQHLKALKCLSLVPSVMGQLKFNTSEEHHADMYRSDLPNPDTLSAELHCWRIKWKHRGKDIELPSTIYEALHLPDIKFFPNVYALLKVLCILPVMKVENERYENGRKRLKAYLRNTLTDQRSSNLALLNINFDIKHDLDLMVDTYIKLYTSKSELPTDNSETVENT

[3] = biological target: proteasome subunit alpha type 1 (PSMA1) (human (endogenous in A549)) (UniProt P25786); assay: co-IP; A549 cell lysate (Pierce IP lysis buffer), pre-cleared with control IgG and protein A/G magnetic beads; primary antibody or control IgG 2 h at 4 °C, beads overnight at 4 °C; immunoblotting; endogenous proteins
[4] = biological target: T1, THAP Domain Containing 12 (THAP12) (human (endogenous in A549)); assay: as above

- binding [1]: binds
- binding [2]: binds
- binding [3]: binds
- binding [4]: binds
Substance: Leucine zipper downregulated in cancer 1 (LDOC1) (from UniProt O95751 1-146)
